The supplement of paper PMC12823440, “Inhibitors supercharge kinase turnover through native proteolytic circuits” (Nature, 2025)
Where a name gives a salt, the structure may show the parent alone. The list shows a part of the results. Hit calls seldom repeat between salt and free forms of one compound.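 Kinases, fused to nanoluciferase, were expressed in K562 cells; luminescence was measured every 4 h from 2 to 18 h as percent of control (DMSO = 100%, positive control = 0%). A time point is decreased if signal falls significantly (2 sigma). Hits were called by the authors by a rule that is not shown; the count of time points alone does not decide it.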

Chains of the proteins cited; added tags and fusions are not shown. Lines headed by an entry give the natural chain unless they say otherwise; changes in a name come on top.
UniProt Q9Y616: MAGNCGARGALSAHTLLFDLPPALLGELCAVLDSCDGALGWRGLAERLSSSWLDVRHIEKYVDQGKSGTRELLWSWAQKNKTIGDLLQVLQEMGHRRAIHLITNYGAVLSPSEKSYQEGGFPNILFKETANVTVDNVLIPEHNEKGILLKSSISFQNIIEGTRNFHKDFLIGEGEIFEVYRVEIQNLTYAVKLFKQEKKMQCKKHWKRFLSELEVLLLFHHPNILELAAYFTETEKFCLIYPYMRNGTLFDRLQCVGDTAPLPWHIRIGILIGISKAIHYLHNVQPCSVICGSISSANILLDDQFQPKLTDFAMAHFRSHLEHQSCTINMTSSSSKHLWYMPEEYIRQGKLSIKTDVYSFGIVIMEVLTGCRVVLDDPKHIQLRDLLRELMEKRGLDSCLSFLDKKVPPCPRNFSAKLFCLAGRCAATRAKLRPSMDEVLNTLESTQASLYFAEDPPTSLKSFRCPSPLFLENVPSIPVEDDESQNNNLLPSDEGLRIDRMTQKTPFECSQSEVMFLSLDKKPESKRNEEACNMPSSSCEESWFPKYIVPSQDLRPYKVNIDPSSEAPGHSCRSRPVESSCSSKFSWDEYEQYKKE
UniProt P23458: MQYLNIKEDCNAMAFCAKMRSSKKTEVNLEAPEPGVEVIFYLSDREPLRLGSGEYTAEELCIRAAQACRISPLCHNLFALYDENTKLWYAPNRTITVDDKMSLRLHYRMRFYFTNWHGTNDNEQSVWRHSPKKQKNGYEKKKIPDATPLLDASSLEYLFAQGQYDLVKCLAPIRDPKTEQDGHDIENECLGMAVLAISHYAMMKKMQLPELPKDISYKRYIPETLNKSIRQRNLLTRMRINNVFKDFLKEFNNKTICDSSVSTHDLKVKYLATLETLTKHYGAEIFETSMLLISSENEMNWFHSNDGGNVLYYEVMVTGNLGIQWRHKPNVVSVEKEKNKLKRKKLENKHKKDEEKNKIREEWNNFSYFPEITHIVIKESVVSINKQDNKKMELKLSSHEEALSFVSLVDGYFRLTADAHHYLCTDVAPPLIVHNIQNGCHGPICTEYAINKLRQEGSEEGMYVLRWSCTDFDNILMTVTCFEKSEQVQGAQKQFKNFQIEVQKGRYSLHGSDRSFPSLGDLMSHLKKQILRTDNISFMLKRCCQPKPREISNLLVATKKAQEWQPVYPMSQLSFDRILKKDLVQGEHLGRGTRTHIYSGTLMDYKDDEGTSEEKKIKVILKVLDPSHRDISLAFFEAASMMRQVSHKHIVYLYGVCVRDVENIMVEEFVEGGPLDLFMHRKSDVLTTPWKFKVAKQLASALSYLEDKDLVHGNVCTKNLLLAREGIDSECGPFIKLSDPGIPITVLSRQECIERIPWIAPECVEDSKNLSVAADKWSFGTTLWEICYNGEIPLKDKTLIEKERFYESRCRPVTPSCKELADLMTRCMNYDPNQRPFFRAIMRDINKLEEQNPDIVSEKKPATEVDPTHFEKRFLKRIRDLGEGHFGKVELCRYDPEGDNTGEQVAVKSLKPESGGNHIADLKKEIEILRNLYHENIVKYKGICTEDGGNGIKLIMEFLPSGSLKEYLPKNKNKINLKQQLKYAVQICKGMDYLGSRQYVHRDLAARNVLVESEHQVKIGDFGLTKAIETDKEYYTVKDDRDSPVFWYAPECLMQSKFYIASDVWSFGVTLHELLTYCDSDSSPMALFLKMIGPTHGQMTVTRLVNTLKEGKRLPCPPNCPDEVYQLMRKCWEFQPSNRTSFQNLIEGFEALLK
UniProt P06239: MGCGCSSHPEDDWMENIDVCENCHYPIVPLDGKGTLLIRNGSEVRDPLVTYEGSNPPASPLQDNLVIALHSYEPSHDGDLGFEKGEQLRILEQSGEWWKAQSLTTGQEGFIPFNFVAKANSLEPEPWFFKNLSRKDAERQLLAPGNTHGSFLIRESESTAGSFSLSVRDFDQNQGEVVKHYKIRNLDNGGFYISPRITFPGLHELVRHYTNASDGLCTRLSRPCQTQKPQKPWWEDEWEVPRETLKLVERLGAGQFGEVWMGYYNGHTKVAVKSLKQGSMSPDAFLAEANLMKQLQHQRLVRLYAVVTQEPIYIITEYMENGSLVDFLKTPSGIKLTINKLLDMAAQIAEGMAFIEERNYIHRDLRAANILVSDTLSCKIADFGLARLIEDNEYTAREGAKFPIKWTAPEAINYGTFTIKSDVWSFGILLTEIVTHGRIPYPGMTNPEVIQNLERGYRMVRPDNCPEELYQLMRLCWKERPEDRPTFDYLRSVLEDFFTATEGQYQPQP
UniProt P53667: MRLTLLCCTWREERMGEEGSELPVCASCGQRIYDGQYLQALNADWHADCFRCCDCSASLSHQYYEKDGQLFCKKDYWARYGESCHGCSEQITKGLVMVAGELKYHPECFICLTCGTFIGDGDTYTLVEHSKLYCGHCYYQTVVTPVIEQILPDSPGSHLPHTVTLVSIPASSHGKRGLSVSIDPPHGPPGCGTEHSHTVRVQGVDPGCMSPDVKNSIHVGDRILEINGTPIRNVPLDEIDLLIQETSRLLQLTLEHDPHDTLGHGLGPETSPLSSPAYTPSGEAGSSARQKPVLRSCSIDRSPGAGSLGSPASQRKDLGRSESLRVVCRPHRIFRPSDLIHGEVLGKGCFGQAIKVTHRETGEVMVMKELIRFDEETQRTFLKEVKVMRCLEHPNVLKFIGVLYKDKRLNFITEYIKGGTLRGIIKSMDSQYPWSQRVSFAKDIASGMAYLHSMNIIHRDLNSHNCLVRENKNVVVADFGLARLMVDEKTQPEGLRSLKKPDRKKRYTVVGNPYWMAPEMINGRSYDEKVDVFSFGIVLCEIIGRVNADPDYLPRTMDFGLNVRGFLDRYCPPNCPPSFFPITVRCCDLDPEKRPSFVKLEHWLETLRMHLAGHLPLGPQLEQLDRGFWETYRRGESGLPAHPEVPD
UniProt P53671: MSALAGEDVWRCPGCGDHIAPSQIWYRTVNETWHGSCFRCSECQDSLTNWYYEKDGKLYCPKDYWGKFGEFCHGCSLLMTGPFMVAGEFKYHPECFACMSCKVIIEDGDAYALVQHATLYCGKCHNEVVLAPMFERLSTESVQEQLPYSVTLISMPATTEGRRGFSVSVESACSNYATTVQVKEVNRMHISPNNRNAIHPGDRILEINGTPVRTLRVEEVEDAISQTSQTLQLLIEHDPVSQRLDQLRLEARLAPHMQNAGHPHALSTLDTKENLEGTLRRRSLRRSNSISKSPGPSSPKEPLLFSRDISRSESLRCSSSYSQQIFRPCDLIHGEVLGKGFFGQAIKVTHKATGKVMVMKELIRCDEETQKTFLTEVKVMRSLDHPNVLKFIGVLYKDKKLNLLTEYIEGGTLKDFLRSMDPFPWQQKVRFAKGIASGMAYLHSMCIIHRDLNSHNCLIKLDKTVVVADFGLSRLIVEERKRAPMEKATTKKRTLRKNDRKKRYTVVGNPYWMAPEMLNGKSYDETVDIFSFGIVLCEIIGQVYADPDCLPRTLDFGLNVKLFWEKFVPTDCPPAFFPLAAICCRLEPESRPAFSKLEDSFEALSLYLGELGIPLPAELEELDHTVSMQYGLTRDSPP
UniProt Q8IWU2: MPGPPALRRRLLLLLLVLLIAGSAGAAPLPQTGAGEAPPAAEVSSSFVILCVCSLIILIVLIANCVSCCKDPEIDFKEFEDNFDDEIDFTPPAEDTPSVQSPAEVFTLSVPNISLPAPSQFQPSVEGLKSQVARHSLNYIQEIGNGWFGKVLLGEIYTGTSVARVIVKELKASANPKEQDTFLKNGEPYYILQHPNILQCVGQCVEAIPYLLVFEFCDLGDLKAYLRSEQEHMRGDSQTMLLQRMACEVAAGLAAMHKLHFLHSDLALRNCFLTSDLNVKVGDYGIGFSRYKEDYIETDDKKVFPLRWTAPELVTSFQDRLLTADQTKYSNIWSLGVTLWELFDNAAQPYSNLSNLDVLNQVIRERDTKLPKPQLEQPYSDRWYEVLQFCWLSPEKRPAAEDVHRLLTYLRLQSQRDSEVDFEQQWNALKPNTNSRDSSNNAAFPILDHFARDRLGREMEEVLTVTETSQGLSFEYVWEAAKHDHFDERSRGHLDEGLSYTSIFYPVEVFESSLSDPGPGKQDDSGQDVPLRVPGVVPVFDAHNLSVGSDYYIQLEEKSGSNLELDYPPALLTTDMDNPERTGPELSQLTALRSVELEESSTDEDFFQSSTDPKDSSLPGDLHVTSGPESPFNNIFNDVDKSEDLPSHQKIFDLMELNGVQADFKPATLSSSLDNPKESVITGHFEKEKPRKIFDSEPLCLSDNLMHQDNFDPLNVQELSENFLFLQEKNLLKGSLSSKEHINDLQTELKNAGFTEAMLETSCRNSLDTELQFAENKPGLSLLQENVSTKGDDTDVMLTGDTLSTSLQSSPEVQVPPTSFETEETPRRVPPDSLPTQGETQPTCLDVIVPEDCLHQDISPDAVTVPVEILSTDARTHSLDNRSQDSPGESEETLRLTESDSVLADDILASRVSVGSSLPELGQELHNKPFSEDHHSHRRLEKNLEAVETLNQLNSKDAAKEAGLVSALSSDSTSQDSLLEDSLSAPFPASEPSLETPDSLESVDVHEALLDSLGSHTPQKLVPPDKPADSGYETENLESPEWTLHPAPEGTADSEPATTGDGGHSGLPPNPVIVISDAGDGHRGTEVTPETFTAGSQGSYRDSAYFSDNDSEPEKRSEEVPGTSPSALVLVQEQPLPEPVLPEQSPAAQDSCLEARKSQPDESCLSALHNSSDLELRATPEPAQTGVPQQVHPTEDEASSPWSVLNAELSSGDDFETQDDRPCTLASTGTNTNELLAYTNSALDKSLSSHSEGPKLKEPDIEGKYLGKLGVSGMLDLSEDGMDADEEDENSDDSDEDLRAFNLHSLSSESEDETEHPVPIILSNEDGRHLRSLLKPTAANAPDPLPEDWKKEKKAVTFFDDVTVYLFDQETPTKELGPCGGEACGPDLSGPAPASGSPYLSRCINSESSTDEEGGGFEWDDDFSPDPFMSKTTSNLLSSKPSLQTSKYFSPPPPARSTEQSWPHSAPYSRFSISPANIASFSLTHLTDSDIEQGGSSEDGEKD
UniProt P07948: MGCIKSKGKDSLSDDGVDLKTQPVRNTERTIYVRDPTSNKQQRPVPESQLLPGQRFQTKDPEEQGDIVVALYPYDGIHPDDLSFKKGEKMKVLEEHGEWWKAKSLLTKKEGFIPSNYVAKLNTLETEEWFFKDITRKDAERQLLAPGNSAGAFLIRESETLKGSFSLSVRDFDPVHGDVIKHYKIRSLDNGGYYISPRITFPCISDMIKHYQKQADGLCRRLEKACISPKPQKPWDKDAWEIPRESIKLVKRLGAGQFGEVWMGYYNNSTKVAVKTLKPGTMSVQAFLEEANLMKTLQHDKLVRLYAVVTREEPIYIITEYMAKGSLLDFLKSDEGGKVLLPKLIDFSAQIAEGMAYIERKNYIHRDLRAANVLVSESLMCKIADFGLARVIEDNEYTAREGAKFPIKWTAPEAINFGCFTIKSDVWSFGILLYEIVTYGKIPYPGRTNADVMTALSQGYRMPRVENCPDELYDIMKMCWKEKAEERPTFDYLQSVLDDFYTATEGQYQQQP
UniProt Q12851: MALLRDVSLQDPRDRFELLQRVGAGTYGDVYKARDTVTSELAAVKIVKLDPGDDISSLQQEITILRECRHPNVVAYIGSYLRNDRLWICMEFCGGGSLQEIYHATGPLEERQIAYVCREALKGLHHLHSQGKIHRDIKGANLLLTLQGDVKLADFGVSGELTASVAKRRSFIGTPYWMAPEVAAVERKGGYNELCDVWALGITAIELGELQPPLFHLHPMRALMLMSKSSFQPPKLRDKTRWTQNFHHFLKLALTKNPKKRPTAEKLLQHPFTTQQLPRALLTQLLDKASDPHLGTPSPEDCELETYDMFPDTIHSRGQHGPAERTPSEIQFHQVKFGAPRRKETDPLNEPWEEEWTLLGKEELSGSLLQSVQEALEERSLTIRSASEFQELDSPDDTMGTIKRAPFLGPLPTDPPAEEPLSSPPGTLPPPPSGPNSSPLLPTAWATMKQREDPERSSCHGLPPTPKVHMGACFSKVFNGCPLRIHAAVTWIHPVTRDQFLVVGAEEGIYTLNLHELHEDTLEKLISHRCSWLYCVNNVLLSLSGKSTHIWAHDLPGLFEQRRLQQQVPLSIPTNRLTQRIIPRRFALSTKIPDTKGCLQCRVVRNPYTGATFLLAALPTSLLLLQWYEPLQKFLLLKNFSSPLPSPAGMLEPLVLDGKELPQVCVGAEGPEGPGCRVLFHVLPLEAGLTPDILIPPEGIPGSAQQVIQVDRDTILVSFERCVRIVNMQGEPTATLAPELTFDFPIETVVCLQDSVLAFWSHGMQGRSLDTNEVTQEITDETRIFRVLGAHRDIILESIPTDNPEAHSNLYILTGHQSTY

Columns and labels:
Assay in all cases: kinase-Nluc reporter destabilization hit call (1 = scored as downregulated) (binary); higher = compound decreases kinase abundance
Details in all cases: K562; 2-18 h
[1] = target: IRAK3 (UniProt Q9Y616)
[2] = target: JAK1 (UniProt P23458)
[3] = target: LCK (UniProt P06239)
[4] = target: LIMK1 (UniProt P53667)
[5] = target: LIMK2 (UniProt P53671)
[6] = target: LMTK2 (UniProt Q8IWU2)
[7] = target: LYN (UniProt P07948)
[8] = target: MAP2K1 (UniProt Q02750)
[9] = target: MAP2K2 (UniProt P36507)
[10] = target: MAP4K2 (UniProt Q12851)

Measured: kinase-Nluc reporter destabilization hit call

Cc1cnc(Nc2ccc(N3CCN(C)CC3)cc2)nc1Nc1cccc(S(=O)(=O)NC(C)(C)C)c1 (2.5 µM)
inactive: [1] 0 | [2] 0 | [3] 0 | [4] 0 | [5] 0 | [6] 0 | [7] 0 | [8] 0 | [9] 0 | [10] 0

C=CC(=O)Nc1cccc(Oc2nc(Nc3ccc(N4CCN(C)CC4)cc3)nc3ccoc23)c1 [Poseltinib] (10 µM)
inactive: [1] 0 | [2] 0 | [3] 0 | [4] 0 | [5] 0 | [6] 0 | [7] 0 | [8] 0 | [9] 0 | [10] 0

COc1ncc(Nc2ncc([C@@H](C)N3CCN(S(C)(=O)=O)CC3)cc2-c2nc(C)nc(N)n2)cc1F (10 µM)
inactive: [1] 0 | [2] 0 | [3] 0 | [4] 0 | [5] 0 | [6] 0 | [7] 0 | [8] 0 | [9] 0 | [10] 0

COc1c(C)c(C(=O)c2ccc(N)c(C(=O)O)c2)n2ccccc12 (10 µM)
inactive: [1] 0 | [2] 0 | [3] 0 | [4] 0 | [5] 0 | [6] 0 | [7] 0 | [8] 0 | [9] 0 | [10] 0

C=C(F)C(=O)N1CCN(c2nc(OC[C@@H]3CCCN3C)nc3c2CCN(c2cccc4cccc(Cl)c24)C3)C[C@@H]1CC#N (2.5 µM)
inactive: [1] 0 | [2] 0 | [3] 0 | [4] 0 | [5] 0 | [6] 0 | [7] 0 | [8] 0 | [9] 0 | [10] 0

O=Nc1c(-c2c(O)[nH]c3ccccc23)[nH]c2ccccc12 [Indirubin-3'-monoxime] (2.5 µM)
inactive: [1] 0 | [2] 0 | [3] 0 | [4] 0 | [5] 0 | [6] 0 | [7] 0 | [8] 0 | [9] 0 | [10] 0

CCOC(=O)c1c2c3c(cccc3[nH]c1=O)C(=O)c1ccccc1-2 (10 µM)
inactive: [1] 0 | [2] 0 | [3] 0 | [4] 0 | [5] 0 | [6] 0 | [7] 0 | [8] 0 | [9] 0 | [10] 0

NC(=O)c1ccc(-c2cnn3ccc(NCc4cccnc4)nc23)cc1 (2.5 µM)
inactive: [1] 0 | [2] 0 | [3] 0 | [4] 0 | [5] 0 | [6] 0 | [7] 0 | [8] 0 | [9] 0 | [10] 0

CC1(N)CCN(c2cnc3c(-c4cccc(Cl)c4Cl)[nH]nc3n2)CC1 (2.5 µM)
inactive: [1] 0 | [2] 0 | [3] 0 | [4] 0 | [5] 0 | [6] 0 | [7] 0 | [8] 0 | [9] 0 | [10] 0

CN(CC(=O)N(Cc1ccc(C2CCCCC2)cc1)c1ccc(C(=O)O)c(O)c1)S(=O)(=O)c1c(F)c(F)c(F)c(F)c1F (2.5 µM)
inactive: [1] 0 | [2] 0 | [3] 0 | [4] 0 | [5] 0 | [6] 0 | [7] 0 | [8] 0 | [9] 0 | [10] 0

CCOc1c([C@H](C)n2nc(C)c3c(N)ncnc32)cc(Cl)c(F)c1[C@@H]1CNC(=O)C1 [Parsaclisib (hydrochloride)] (10 µM)
inactive: [1] 0 | [2] 0 | [3] 0 | [4] 0 | [5] 0 | [6] 0 | [7] 0 | [8] 0 | [9] 0 | [10] 0

CC(C)(C)C(=O)N1N=CC[C@H]1c1ccccc1 (10 µM)
inactive: [1] 0 | [2] 0 | [3] 0 | [4] 0 | [5] 0 | [6] 0 | [7] 0 | [8] 0 | [9] 0 | [10] 0

O=C1NC(=O)C(c2cn(-c3ccccc3)nc2-c2ccc(F)cc2)N1 (stereo not given) (10 µM)
inactive: [1] 0 | [2] 0 | [3] 0 | [4] 0 | [5] 0 | [6] 0 | [7] 0 | [8] 0 | [9] 0 | [10] 0

O=C(NOCCO)c1ccc2cncn2c1Nc1ccc(I)cc1F (10 µM)
inactive: [1] 0 | [2] 0 | [3] 0 | [4] 0 | [5] 0 | [6] 0 | [7] 0 | [8] 0 | [9] 0 | [10] 0

N#C/C(=C\c1ccc2oc(=O)[nH]c2c1)C(=O)c1ccc(O)c(O)c1 (10 µM)
inactive: [1] 0 | [2] 0 | [3] 0 | [4] 0 | [5] 0 | [6] 0 | [7] 0 | [8] 0 | [9] 0 | [10] 0

COc1ccc2c(c1OC)OC1c3ccc(O)cc3OCC21 (stereo not given) [Methylnissolin] (10 µM)
inactive: [1] 0 | [2] 0 | [3] 0 | [4] 0 | [5] 0 | [6] 0 | [7] 0 | [8] 0 | [9] 0 | [10] 0

CN(C)Cc1cccc(N=C(c2ccccc2)c2c(O)[nH]c3cc(C(N)=O)ccc23)c1 (10 µM)
inactive: [1] 0 | [2] 0 | [3] 0 | [4] 0 | [5] 0 | [6] 0 | [7] 0 | [8] 0 | [9] 0 | [10] 0

CC[C@@H]1C(=O)N(C)c2cnc(Nc3ccc(C(=O)N[C@H]4CC[C@H](N5CCN(CC6CC6)CC5)CC4)cc3OC)nc2N1C(C)C [Volasertib] (2.5 µM)
inactive: [1] 0 | [2] 0 | [3] 0 | [4] 0 | [5] 0 | [6] 0 | [7] 0 | [8] 0 | [9] 0 | [10] 0

Arranged by number of heavy atoms (smallest number first): part of the list above
O=Nc1c(-c2c(O)[nH]c3ccccc23)[nH]c2ccccc12 [Indirubin-3'-monoxime] (2.5 µM)
inactive: [1] 0 | [2] 0 | [3] 0 | [4] 0 | [5] 0 | [6] 0 | [7] 0 | [8] 0 | [9] 0 | [10] 0

COc1ccc2c(c1OC)OC1c3ccc(O)cc3OCC21 (stereo not given) [Methylnissolin] (10 µM)
inactive: [1] 0 | [2] 0 | [3] 0 | [4] 0 | [5] 0 | [6] 0 | [7] 0 | [8] 0 | [9] 0 | [10] 0

NC(=O)c1ccc(-c2cnn3ccc(NCc4cccnc4)nc23)cc1 (2.5 µM)
inactive: [1] 0 | [2] 0 | [3] 0 | [4] 0 | [5] 0 | [6] 0 | [7] 0 | [8] 0 | [9] 0 | [10] 0

The listing continues.

O=C1NC(=O)/C(=C/c2ccc(-c3ccc(F)cc3O)o2)S1 (10 µM)
inactive: [1] 0 | [2] 0 | [3] 0 | [4] 0 | [5] 0 | [6] 0 | [7] 0 | [8] 0 | [9] 0 | [10] 0

CN1CCN(CCCNc2ncc(Cl)c(-c3cc4c(C(=O)NC5CC5)cccc4s3)n2)CC1 (10 µM)
inactive: [1] 0 | [2] 0 | [3] 0 | [4] 0 | [5] 0 | [6] 0 | [7] 0 | [8] 0 | [9] 0 | [10] 0

O=C(O)c1ccc(-c2c[nH]c3ncc(-c4ccccc4)cc23)cc1C1CCCC1 (2.5 µM)
inactive: [1] 0 | [2] 0 | [3] 0 | [4] 0 | [5] 0 | [6] 0 | [7] 0 | [8] 0 | [9] 0 | [10] 0

O=C(O)c1cc(O)c2c(c1)[C@@H]([C@H]1c3cc(C(=O)O)cc(O)c3C(=O)c3c(O[C@@H]4O[C@H](CO)[C@@H](O)[C@H](O)[C@H]4O)cccc31)c1cccc(O[C@@H]3O[C@H](CO)[C@@H](O)[C@H](O)[C@H]3O)c1C2=O [Sennoside B] (2.5 µM)
inactive: [1] 0 | [2] 0 | [3] 0 | [4] 0 | [5] 0 | [6] 0 | [7] 0 | [8] 0 | [9] 0 | [10] 0

Nc1cc(C(F)F)c(-c2nc(N3C4CCC3COC4)nc(N3C4CCC3COC4)n2)cn1 (2.5 µM)
inactive: [1] 0 | [2] 0 | [3] 0 | [4] 0 | [5] 0 | [6] 0 | [7] 0 | [8] 0 | [9] 0 | [10] 0

COc1ccc2c(Oc3ccc(NC(=O)c4c(C)n(CC(C)(C)O)n(-c5ccccc5)c4=O)cc3F)ccnc2c1 (2.5 µM)
inactive: [1] 0 | [2] 0 | [3] 0 | [4] 0 | [5] 0 | [6] 0 | [7] 0 | [8] 0 | [9] 0 | [10] 0

CC[C@H](Nc1ncnc2[nH]cnc12)c1oc2ccccc2c(=O)c1-c1cccc(F)c1 [Tenalisib] (10 µM)
inactive: [1] 0 | [2] 0 | [3] 0 | [4] 0 | [5] 0 | [6] 0 | [7] 0 | [8] 0 | [9] 0 | [10] 0

CC(=O)NCCc1c[nH]c2ccc(O)cc12 [N-Acetyl-5-hydroxytryptamine] (10 µM)
inactive: [1] 0 | [2] 0 | [3] 0 | [4] 0 | [5] 0 | [6] 0 | [7] 0 | [8] 0 | [9] 0 | [10] 0

COc1ccc(-n2c(C)c([N+](=O)[O-])c3ccc(O)cc32)cc1 (10 µM)
inactive: [1] 0 | [2] 0 | [3] 0 | [4] 0 | [5] 0 | [6] 0 | [7] 0 | [8] 0 | [9] 0 | [10] 0

CN(C)c1nc2c(Br)c(Br)c(Br)c(Br)c2n1CC(=O)O (10 µM)
inactive: [1] 0 | [2] 0 | [3] 0 | [4] 0 | [5] 0 | [6] 0 | [7] 0 | [8] 0 | [9] 0 | [10] 0
